For the experiment, the system named is P388 leukemia ip, CD2F1 mice, survival T/C. Put plainly: NCI In Vivo Anticancer Drug Screen. Data for tumor model P388 Leukemia (intraperitoneal) in CD2F1 (CDF1) mice. The settings on record: T/C endpoint: median survival time, higher T/C = longer survival.
[1] abbreviates: dose: 50.0 mg/kg/injection, schedule: Q01DX005 (ip), vehicle: saline with Tween-80.
Where [2] appears, read: dose: 200.0 mg/kg/injection, schedule: Q01DX005 (ip), vehicle: saline with Tween-80.
The mark [3] stands for this setting: dose: 50.0 mg/kg/injection, schedule: Q01DX009 (ip), vehicle: saline with Tween-80.
The mark [4] stands for this setting: dose: 200.0 mg/kg/injection, schedule: Q01DX009 (ip), vehicle: saline with Tween-80.
Setting [5] is: dose: 200.0 mg/kg/injection, schedule: Q01DX009 (ip), vehicle: Klucel (hydroxypropylcellulose) (HPC).
The mark [6] stands for this setting: dose: 200.0 mg/kg/injection, schedule: Q01DX005 (ip), vehicle: Klucel (hydroxypropylcellulose) (HPC).
Where [7] appears, read: dose: 240.0 mg/kg/injection, schedule: Q01DX005 (ip), vehicle: Klucel (hydroxypropylcellulose) (HPC).

Drawing on PubChem BioAssay AID330 (DTP/NCI, 2004), this text covers survivor count and T/C for 23 molecules.

The list is a part of this screen's results and no random one: it is rich in T/C values a quarter to a half above the control, in often repeated tests (any T/C) and in doses without a T/C. Further doses and runs are listed elsewhere. T/C is the treated group as % of the vehicle group. Some entries give survivors of the animals treated and no T/C: the source files T/C as zero there, which appears to mark a toxic dose or a test without result, not a measured value. Some survivor counts are full or nearly so, which does not show that the dose was tolerated: the source hardly ever lists a survival T/C far under the control, and the zero likely stands for such cases as well. Counts of survivors are from the toxicity check (mostly the fifth day) where no day follows; animals may have died later. Schedules are NCI's codes, taken here to give the interval after Q, in days (D) or hours (H), and the number of doses after X. Some entries were tested several times; the results are listed from low to high. Where survival is the endpoint, the PubChem record calls one and a half times the control and up active, and a quarter to a half above the control has no call in these data; cut-offs in other NCI protocols can differ. Some T/C values are followed by the survivors on the day toxicity was checked, most often the fifth; where none is given, no animal had died by that day.

Regarding `FC(F)(F)c1nc(Cl)nc(Cl)c1Cl`, the survivor count is, setting by setting: under setting [1], 0 of 6; (dose: 100.0 mg/kg/injection, schedule: Q01DX005 (ip), vehicle: saline with Tween-80) 0 of 6; under setting [2], 0 of 6.
In the case of `COc1ccc(Br)cc1/C=C/[N+](=O)[O-]`, the survivor count under setting [3] is 1 of 6.
Take `CCCCCCCCCCCCCCCc1ccc(C(=O)C[n+]2ccccc2)cc1`: the T/C by setting is: (dose: 12.5 mg/kg/injection, schedule: Q01DX009 (ip), vehicle: saline with Tween-80) 133 % of control; (dose: 25.0 mg/kg/injection, schedule: Q04DX003 (ip), vehicle: saline with Tween-80) 136 % of control; (dose: 37.5 mg/kg/injection, schedule: Q04DX003 (ip), vehicle: saline with Tween-80) 125 % of control [5 of 6 alive]. Also, the survivor count by setting is: (dose: 25.0 mg/kg/injection, schedule: Q01DX009 (ip), vehicle: saline with Tween-80) 3 of 6; under setting [3], 0 of 6.
For the molecule `CNCCNc1ccc(NCCNC)c2c1C(=O)c1ccccc1C2=O`, the survivor count is reported as 6 of 6 (dose: 25.0 mg/kg/injection, schedule: Q01DX009 (ip), vehicle: distilled water + Tween-80); 8 of 8 (dose: 32.0 mg/kg/injection, schedule: Q01DX009 (ip), vehicle: acid diluted with saline); 0 of 6 (dose: 50.0 mg/kg/injection, schedule: Q01DX009 (ip), vehicle: distilled water + Tween-80); 0 of 6 (dose: 100.0 mg/kg/injection, schedule: Q01DX009 (ip), vehicle: distilled water + Tween-80); 0 of 6 (dose: 200.0 mg/kg/injection, schedule: Q01DX009 (ip), vehicle: distilled water + Tween-80).
Consider `CC(=O)O.CC(=O)O.CC(=O)O.CC(=O)O.O=C(O)C1C[N-]CC(C(=O)O)C1.O=C(O)C1C[N-]CC(C(=O)O)C1.[Cu+].[Cu+]` (centres undefined), for which the survivor count is, setting by setting: (dose: 25.0 mg/kg/injection, schedule: Q01DX005 (ip), vehicle: suspension in saline) 0 of 6; (dose: 50.0 mg/kg/injection, schedule: Q01DX005 (ip), vehicle: suspension in saline) 0 of 6; (dose: 100.0 mg/kg/injection, schedule: Q01DX005 (ip), vehicle: suspension in saline) 0 of 6; (dose: 200.0 mg/kg/injection, schedule: Q01DX005 (ip), vehicle: suspension in saline) 0 of 6.
On to `O=[N+]([O-])/C=C/c1cc2c(cc1Br)OCO2`, for which the survivor count (dose: 400.0 mg/kg/injection, schedule: Q04DX003 (ip), vehicle: saline with Tween-80) is listed as 3 of 6.
As for `C=CCn1c2c(c3ccccc3c1=O)C(=O)c1ccccc1-2`, the survivor count is 5 of 5 under setting [1] and 5 of 5 under setting [2].
As to `Cc1nccn1CC(=O)c1ccccc1`, the survivor count (dose: 240.0 mg/kg/injection, schedule: Q01DX005 (ip), vehicle: saline with Tween-80) is reported as 1 of 6.
As for `CC1CNC(=O)NC1=O` (centres undefined), under setting [4], the survivor count was 6 of 6.
With `CCC(CCC(C)C1CCC2C3CC=C4CC(O)CCC4(C)C3CCC12C)C(C)C` (centres undefined) (tested in a mixture with another compound), under setting [5], the survivor count is reported as 0 of 6.
Take `O=Cc1cccc(C=O)c1`: the survivor count is on record as 6 of 6 (dose: 5.0 mg/kg/injection, schedule: Q04DX002 (ip), vehicle: saline with Tween-80); 6 of 6 (dose: 10.0 mg/kg/injection, schedule: Q04DX002 (ip), vehicle: saline with Tween-80); 1 of 6 (dose: 20.0 mg/kg/injection, schedule: Q04DX002 (ip), vehicle: saline with Tween-80); 0 of 6 (dose: 100.0 mg/kg/injection, schedule: Q04DX002 (ip), vehicle: saline with Tween-80); 0 of 6 (dose: 200.0 mg/kg/injection, schedule: Q04DX002 (ip), vehicle: saline with Tween-80); 0 of 6 (dose: 400.0 mg/kg/injection, schedule: Q04DX002 (ip), vehicle: saline with Tween-80).
Consider `CSC1=NC(=S)C(C)(C)NN1`, for which the survivor count is, setting by setting: (dose: 200.0 mg/kg/injection, schedule: Q04DX002 (ip), vehicle: Klucel (hydroxypropylcellulose) (HPC)) 4 of 6; (dose: 400.0 mg/kg/injection, schedule: Q04DX002 (ip), vehicle: Klucel (hydroxypropylcellulose) (HPC)) 0 of 6.
In the case of `CC(C)c1ccc2c(c1)CCC1C(C)(CN)CCCC21C` (centres undefined), under setting [6], the survivor count was 3 of 6.
Regarding `O=C1Cc2ccccc2N1C(=O)c1ccc(Br)cc1`, for the setting “dose: 400.0 mg/kg/injection, schedule: Q01DX001 (ip), vehicle: Klucel (hydroxypropylcellulose) (HPC)”, the survivor count is 6 of 6.
For `C#CC1OCCCO1`, for the setting “dose: 240.0 mg/kg/injection, schedule: Q01DX005 (ip), vehicle: saline”, the survivor count is reported as 0 of 6.
Turning to `CC(C)=CCc1c(C)cc2cc3c(c(O)c2c1O)C(O)=CC(=O)C3(CC=C(C)C)CC=C(CO)CO` (centres undefined), under setting [6], the survivor count was 1 of 6.
Turning to `Clc1nc(Cl)nc(-c2cn(-c3ccccc3)c3ccccc23)n1`, the survivor count was 6 of 6 (dose: 100.0 mg/kg/injection, schedule: Q01DX009 (ip), vehicle: saline with Tween-80); 6 of 6 under setting [4]; 6 of 6 (dose: 400.0 mg/kg/injection, schedule: Q01DX009 (ip), vehicle: saline with Tween-80).
`COc1ccc(C(NC(N)=O)c2cc3c(cc2OC(C)=O)OCO3)c(OC)c1` (centres undefined): the survivor count was 6 of 6 (dose: 120.0 mg/kg/injection, schedule: Q01DX005 (ip), vehicle: Klucel (hydroxypropylcellulose) (HPC)) and 6 of 6 under setting [7].
Take `COc1ccc2ccc(/C=C/[N+](=O)[O-])cc2c1OC`: the T/C (dose: 25.0 mg/kg/injection, schedule: Q01DX009 (ip), vehicle: other) is 130 % of control. Besides, the survivor count was 0 of 6 and 2 of 6 (dose: 50.0 mg/kg/injection, schedule: Q01DX009 (ip), vehicle: other); 1 of 6 (dose: 100.0 mg/kg/injection, schedule: Q01DX009 (ip), vehicle: other); 1 of 6 (dose: 200.0 mg/kg/injection, schedule: Q01DX009 (ip), vehicle: other); 0 of 6 (dose: 400.0 mg/kg/injection, schedule: Q01DX009 (ip), vehicle: other).
Take `CCC12C[N+]3([O-])CCc4c([nH]c5ccccc45)C(C(=O)OC)(c4cc5c(cc4OC)N(C)C4C(O)(C(=O)OC)C(OC(C)=O)C6(CC)C=CCN7CCC54C76)CC(C3)C1O2` (centres undefined): the T/C (dose: 1.0 mg/kg/injection, schedule: Q01DX001 (ip), vehicle: distilled water + Tween-80) is 128 % of control; the T/C (dose: 2.0 mg/kg/injection, schedule: Q01DX001 (ip), vehicle: distilled water + Tween-80) is 130 % of control; the T/C (dose: 4.0 mg/kg/injection, schedule: Q01DX001 (ip), vehicle: distilled water + Tween-80) is 142 % of control; the T/C (dose: 4.0 mg/kg/injection, schedule: Q01DX001 (ip), vehicle: water) is 130 % of control; the T/C (dose: 16.0 mg/kg/injection, schedule: Q01DX001 (ip), vehicle: water) is 134 % of control; the T/C (dose: 32.0 mg/kg/injection, schedule: Q01DX001 (ip), vehicle: distilled water + Tween-80) is 140 % of control.
On to `Fc1ccc(CSC(=S)Nc2cccc(C(F)(F)F)c2)cc1`, for which the survivor count (dose: 200.0 mg/kg/injection, schedule: Q01DX009 (ip), vehicle: suspension in saline) is listed as 6 of 6.
Turning to `COC1(OC)C(C)C(C#N)(C#N)C1(OC)OC` (centres undefined), the survivor count under setting [7] was 0 of 6.
As for `CCCCCCCCC(=O)c1c(OC)oc(/C=N/O)cc1=O`, the survivor count runs as follows: (dose: 6.25 mg/kg/injection, schedule: Q01DX009 (ip), vehicle: Klucel (hydroxypropylcellulose) (HPC)) 6 of 6; (dose: 25.0 mg/kg/injection, schedule: Q01DX009 (ip), vehicle: Klucel (hydroxypropylcellulose) (HPC)) 6 of 6; (dose: 50.0 mg/kg/injection, schedule: Q01DX009 (ip), vehicle: Klucel (hydroxypropylcellulose) (HPC)) 6 of 6; (dose: 100.0 mg/kg/injection, schedule: Q01DX009 (ip), vehicle: Klucel (hydroxypropylcellulose) (HPC)) 6 of 6; under setting [5], 6 of 6.
